The target in this series is T1, C.Csp231I WT (crude extract) (Citrobacter sp. RFL231) (UniProt Q32WH4).
T1 sequence (looked up, limits assumed): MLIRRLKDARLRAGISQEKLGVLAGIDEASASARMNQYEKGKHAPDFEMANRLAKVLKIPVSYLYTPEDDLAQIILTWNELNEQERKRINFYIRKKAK
Put plainly: EMSA. The following applies: crude extract 0-30 ug/ml, 1 ug competitor DNA; 50 mM Tris-HCl pH 8.0, 1 mM DTT, 10 mM MgCl2, 22 C, 20 min, 100 nM DNA; 6% native PAGE in 0.5x TBE; protein in a lysate after overexpression; label: 5'-biotin on strand 1.

The exact form of at least one protein or probe is not confirmed. At least one result comes from cells or an extract, where the contact may be indirect. At least one verdict rests on a figure or table, not on a statement of the authors. Where a protein sequence is shown, tags need not be part of it.

Turning to “TAATCACACTAAGGAAAACTTAGTAAAATTGC (double strand) [FBIOT1/BIOT1 32-mer (OL C-box)]”, the binding result is on record as “binds”.

The values are drawn from PMC4824078.
